Results as given in the supplement of paper PMC10849652.
Some of the results follow.

Chains of the proteins cited; added tags and fusions are not shown. Lines headed by an entry give the natural chain unless they say otherwise; changes in a name come on top.
UniProt Q9NZB8: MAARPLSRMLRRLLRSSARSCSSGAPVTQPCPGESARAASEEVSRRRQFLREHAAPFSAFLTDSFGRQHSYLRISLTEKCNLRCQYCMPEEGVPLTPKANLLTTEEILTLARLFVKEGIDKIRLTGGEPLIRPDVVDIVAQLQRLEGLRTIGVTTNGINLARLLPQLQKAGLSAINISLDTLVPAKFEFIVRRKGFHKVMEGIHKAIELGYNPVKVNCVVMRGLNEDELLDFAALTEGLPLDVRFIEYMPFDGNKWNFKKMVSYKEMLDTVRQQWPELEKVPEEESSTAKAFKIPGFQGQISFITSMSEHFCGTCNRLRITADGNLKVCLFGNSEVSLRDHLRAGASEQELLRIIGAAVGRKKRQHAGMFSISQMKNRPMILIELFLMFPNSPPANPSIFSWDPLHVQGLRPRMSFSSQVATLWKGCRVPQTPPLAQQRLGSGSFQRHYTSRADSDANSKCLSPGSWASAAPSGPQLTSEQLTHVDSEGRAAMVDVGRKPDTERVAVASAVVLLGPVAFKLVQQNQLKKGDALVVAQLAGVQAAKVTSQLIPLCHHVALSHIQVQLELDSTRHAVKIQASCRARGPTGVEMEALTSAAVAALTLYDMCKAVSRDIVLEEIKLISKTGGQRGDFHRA
UniProt Q8IY33: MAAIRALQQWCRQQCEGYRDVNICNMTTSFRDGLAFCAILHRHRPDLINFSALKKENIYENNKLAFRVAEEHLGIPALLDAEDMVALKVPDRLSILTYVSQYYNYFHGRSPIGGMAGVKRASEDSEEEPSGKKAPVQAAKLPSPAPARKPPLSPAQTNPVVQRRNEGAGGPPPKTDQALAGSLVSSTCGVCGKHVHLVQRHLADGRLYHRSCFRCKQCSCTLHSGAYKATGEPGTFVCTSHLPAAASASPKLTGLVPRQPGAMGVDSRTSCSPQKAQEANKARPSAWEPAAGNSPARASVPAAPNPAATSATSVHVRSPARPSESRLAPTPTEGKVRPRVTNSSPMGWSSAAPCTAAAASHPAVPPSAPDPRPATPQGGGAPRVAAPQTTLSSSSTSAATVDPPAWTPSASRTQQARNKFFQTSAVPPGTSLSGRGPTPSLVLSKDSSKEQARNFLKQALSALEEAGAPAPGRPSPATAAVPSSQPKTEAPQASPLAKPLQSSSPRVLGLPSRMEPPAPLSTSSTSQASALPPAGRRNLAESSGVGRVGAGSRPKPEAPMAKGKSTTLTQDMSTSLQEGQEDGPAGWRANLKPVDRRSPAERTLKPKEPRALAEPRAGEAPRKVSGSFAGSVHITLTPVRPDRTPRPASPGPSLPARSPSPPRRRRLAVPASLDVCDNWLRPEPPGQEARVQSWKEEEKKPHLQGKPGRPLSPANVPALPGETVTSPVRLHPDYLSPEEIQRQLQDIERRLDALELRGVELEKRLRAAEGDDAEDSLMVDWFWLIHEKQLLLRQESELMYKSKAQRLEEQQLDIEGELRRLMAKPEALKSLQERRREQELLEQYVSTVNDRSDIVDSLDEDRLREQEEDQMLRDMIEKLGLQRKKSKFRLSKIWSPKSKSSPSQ
UniProt Q6WCQ1: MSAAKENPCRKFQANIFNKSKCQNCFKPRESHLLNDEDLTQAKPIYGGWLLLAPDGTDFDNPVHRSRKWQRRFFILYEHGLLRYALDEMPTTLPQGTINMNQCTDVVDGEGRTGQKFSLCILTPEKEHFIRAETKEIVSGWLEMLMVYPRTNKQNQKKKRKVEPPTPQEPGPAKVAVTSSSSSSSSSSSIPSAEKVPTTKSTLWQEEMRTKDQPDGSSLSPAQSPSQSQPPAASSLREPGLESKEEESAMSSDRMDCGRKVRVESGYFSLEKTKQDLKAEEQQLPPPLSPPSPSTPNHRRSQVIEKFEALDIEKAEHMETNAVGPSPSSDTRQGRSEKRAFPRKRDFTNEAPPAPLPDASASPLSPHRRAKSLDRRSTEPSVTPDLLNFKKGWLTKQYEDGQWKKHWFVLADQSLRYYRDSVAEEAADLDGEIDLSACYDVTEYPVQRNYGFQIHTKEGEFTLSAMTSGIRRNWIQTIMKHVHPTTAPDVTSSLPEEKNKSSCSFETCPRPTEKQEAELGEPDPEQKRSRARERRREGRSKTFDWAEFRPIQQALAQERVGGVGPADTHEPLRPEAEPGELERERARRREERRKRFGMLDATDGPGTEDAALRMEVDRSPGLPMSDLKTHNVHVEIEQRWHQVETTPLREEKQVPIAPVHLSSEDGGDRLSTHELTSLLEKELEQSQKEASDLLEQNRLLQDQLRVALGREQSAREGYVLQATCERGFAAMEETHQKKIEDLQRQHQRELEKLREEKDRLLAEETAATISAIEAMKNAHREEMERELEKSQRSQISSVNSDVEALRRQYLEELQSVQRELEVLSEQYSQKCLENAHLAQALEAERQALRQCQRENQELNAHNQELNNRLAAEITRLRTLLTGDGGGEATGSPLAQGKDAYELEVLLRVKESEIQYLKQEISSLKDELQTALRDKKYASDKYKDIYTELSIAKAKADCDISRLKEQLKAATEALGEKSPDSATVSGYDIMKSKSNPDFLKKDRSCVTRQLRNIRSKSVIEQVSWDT
UniProt Q8TAP9: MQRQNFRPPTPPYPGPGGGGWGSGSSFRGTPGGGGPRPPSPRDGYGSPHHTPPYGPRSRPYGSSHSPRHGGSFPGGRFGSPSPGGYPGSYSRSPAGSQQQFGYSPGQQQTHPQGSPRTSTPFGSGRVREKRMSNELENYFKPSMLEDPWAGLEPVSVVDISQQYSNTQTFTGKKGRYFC
UniProt O75352: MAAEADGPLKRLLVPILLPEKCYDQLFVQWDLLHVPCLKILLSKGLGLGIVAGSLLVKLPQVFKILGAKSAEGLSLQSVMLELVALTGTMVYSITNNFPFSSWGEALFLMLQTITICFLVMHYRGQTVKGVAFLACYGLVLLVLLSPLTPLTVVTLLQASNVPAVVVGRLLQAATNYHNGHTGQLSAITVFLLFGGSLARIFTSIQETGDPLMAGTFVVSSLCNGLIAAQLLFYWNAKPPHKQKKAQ
UniProt Q9UL63, whole entry, looked up: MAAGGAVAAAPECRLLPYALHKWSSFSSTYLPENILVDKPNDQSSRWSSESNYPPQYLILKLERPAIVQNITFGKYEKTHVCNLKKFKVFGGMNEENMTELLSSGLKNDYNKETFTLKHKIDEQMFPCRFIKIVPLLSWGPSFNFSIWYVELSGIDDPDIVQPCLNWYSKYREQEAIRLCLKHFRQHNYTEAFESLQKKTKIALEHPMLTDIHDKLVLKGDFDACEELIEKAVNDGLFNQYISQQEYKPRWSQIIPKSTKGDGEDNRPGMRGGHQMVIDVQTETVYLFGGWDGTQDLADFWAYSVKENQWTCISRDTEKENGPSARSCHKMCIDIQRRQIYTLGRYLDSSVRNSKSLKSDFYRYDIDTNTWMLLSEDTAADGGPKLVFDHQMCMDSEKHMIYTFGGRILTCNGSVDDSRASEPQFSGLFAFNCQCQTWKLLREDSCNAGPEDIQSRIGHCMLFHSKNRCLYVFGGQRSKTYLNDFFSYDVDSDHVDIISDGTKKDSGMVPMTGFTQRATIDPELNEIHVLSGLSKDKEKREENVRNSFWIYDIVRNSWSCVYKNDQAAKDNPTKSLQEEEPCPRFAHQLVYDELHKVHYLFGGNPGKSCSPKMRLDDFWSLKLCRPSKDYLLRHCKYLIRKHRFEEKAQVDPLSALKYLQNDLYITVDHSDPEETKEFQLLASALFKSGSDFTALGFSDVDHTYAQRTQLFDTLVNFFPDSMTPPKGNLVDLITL
UniProt Q9BV20: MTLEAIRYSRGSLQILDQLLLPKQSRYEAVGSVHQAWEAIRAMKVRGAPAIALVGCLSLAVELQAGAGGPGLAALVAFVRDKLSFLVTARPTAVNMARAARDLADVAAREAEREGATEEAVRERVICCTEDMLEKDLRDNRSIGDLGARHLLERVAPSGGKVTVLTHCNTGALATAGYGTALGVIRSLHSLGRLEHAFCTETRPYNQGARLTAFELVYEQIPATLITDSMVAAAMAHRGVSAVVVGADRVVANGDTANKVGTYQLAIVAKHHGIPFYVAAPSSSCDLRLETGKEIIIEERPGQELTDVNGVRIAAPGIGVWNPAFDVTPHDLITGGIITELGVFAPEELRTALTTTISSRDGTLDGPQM
UniProt P34949: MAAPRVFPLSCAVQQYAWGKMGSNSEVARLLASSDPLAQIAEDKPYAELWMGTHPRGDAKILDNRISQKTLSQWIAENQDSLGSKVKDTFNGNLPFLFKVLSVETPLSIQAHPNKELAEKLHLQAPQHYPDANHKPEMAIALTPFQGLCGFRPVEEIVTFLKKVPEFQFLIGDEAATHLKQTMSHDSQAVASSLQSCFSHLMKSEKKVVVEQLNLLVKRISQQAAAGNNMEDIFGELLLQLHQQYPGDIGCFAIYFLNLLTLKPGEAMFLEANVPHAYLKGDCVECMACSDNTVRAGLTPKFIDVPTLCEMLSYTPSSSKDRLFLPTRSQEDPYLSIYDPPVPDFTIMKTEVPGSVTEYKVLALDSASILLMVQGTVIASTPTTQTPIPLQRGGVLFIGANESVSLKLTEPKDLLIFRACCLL
UniProt Q96EN8: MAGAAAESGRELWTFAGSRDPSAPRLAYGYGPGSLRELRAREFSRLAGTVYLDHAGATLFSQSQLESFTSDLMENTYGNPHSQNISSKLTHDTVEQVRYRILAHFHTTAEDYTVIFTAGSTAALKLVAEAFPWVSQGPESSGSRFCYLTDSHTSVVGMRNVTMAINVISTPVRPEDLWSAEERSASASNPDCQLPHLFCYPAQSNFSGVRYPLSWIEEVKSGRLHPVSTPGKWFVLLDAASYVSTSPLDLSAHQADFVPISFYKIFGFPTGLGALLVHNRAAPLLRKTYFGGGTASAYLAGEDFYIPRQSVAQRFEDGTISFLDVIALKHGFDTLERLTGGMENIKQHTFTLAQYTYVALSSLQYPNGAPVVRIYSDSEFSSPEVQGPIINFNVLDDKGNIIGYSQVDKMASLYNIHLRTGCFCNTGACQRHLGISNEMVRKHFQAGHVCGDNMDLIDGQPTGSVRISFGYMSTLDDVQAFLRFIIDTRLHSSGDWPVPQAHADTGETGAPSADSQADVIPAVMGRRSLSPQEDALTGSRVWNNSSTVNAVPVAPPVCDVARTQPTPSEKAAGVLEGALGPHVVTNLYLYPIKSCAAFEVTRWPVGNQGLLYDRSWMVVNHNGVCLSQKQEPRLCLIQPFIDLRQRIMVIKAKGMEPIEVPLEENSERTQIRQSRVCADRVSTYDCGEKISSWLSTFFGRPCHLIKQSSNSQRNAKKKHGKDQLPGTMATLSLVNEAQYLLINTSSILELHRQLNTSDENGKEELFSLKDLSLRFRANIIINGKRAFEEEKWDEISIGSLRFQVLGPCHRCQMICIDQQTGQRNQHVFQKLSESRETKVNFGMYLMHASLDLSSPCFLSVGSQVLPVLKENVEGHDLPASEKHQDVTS
UniProt Q9NYP9: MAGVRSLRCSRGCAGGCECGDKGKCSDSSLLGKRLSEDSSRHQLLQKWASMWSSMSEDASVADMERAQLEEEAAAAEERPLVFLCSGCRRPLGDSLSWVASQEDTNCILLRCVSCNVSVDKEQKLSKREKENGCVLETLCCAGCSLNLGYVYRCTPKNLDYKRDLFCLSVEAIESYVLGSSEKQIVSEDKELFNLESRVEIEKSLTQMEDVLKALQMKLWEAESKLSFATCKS

Experiments:
Experiment in all cases: log2 fold change, soluble protein after heating vs DMSO (PISA); higher = thermal stabilisation; K562 cells, 10 uM, 30 min; active = over 0.2 and 3.5 SD of the protein, either way, in both replicates (recomputed)
[1] = compound: COC1=CC=C(C=C1)CN2C=CC3=C2C=C(C=C3)C(=O)NO
Procedure, shortened: (§1)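 K562 cells at 2×10^6 cells/mL were treated with 10 μM compound for 30 min. Aliquots were heated for 3 min across 48°C-58°C, pooled, and extracted in PBS with 0.5% NP-40 at 4°C; soluble protein was the supernatant after 21,000xg for 90 min. Soluble protein was quantified by TMTpro 16plex LC-MS/MS with channel sums equalised, and reported as log2 fold change in thermal stability against DMSO controls, with values from duplicates.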

[2] = compound: CON(C)C(=O)N1N=C(c2cc(F)ccc2F)S[C@@]1(CCCN)c1ccccc1 [filanesib]
Procedure, shortened: as §1

[3] = compound: CO[C@H]1C[C@@H]2CC[C@@H](C)[C@@](O)(O2)C(=O)C(=O)N2CCCC[C@H]2C(=O)O[C@H]([C@H](C)C[C@@H]2CC[C@H](n3cnnn3)[C@H](OC)C2)CC(=O)[C@H](C)/C=C(\C)[C@@H](O)[C@@H](OC)C(=O)[C@H](C)C[C@H](C)/C=C/C=C/C=C/1C [zotarolimus]
Procedure, shortened: as §1

[4] = compound: COc1cc(C(=O)O)ccc1NC(=O)[C@@H]1N[C@@H](CC(C)(C)C)[C@](C#N)(c2ccc(Cl)cc2F)[C@H]1c1cccc(Cl)c1F [idasanutlin]
Procedure, shortened: as §1

[5] = compound: COc1cc(Nc2ncc3c(n2)-c2ccc(Cl)cc2C(c2c(F)cccc2OC)=NC3)ccc1C(=O)O [alisertib]
Procedure, shortened: as §1

[6] = compound: COc1cc2nc(-c3cc(F)ccc3O)nc(N[C@@H]3CNC[C@H]3C(C)(C)O)c2cc1OC
Procedure, shortened: as §1

[7] = compound: COc1cc2ncnc(Nc3ccc(F)c(Cl)c3)c2cc1OCCCN1CCOCC1 [gefitinib]
Procedure, shortened: as §1

[8] = compound: COc1cccc2cc(-c3nc([C@H]4CC[C@H](C(=O)O)CC4)n4ncnc(N)c34)[nH]c12
Procedure, shortened: as §1

[9] = compound: CS(=O)(=O)CCNCc1ccc(-c2ccc3ncnc(Nc4ccc(OCc5cccc(F)c5)c(Cl)c4)c3c2)o1 [lapatinib]
Procedure, shortened: as §1

[10] = compound: CS(=O)(=O)N1CCN(Cc2cc3nc(-c4cccc5[nH]ncc45)nc(N4CCOCC4)c3s2)CC1 [pictilisib]
Procedure, shortened: as §1

[11] = compound: CS(=O)(=O)c1ccc(-c2cnc(N)c(C(=O)Nc3ccccc3)n2)cc1
Procedure, shortened: as §1

[12] = compound: C[C@@H](Oc1cc(-c2cnn(C3CCNCC3)c2)cnc1N)c1c(Cl)ccc(F)c1Cl [crizotinib]
Procedure, shortened: as §1

[13] = compound: C[C@@H]1COCCN1C2=NC(=NC(=C2)C3(CC3)S(=O)(=O)C)C4=C5C=CNC5=CC=C4
Procedure, shortened: as §1

[14] = compound: C[C@H](C1=CC=C(C=C1)C(=O)NC2=C3C=CNC3=NC=C2)N
Procedure, shortened: as §1

[15] = compound: C[C@H](Nc1ncnc2nc[nH]c12)c1cc2cccc(Cl)c2c(=O)n1-c1ccccc1 [duvelisib]
Procedure, shortened: as §1

[16] = compound: Cc1cc(Nc2cc(CN3CCOCC3)c3nc(C)c(Cc4ccc(Cl)cc4F)n3n2)n[nH]1 [gandotinib]
Procedure, shortened: as §1

[17] = compound: Cc1cc(Nc2cc(N3CCN(C)CC3)nc(Sc3ccc(NC(=O)C4CC4)cc3)n2)n[nH]1 [tozasertib]
Procedure, shortened: as §1

[18] = compound: Cc1cc(SCc2sc(-c3ccc(C(F)(F)F)cc3)nc2C)ccc1OCC(=O)O
Procedure, shortened: as §1

[19] = compound: Cc1ccc(-n2nc(C(C)(C)C)cc2NC(=O)Nc2ccc(OCCN3CCOCC3)c3ccccc23)cc1 [doramapimod]
Procedure, shortened: as §1

[20] = compound: Cc1ccc(C(=O)N(CCCN)[C@@H](c2nc3cc(Cl)ccc3c(=O)n2Cc2ccccc2)C(C)C)cc1 [ispinesib]
Procedure, shortened: as §1

Measured: log2 fold change

MOCS1 isoform 8 (UniProt Q9NZB8)
inactive: [1] -0.098 | [2] -0.009 | [3] 0.027 | [4] -0.005 | [5] -0.054 | [6] -0.014 | [7] 0.087 | [8] -0.001 | [9] 0.047 | [10] 0.117 | [11] -0.015 | [12] 0.074 | [13] 0.068 | [14] -0.166 | [15] 0.05 | [16] -0.162 | [17] 0.037 | [18] 0.008 | [19] 0.017 | [20] -0.025

MRPL40 (UniProt Q9NQ50)
inactive: [1] -0.046 | [2] 0.154 | [3] 0.084 | [4] 0.003 | [5] -0.093 | [6] -0.097 | [7] -0.071 | [8] -0.038 | [9] 0.093 | [10] 0.011 | [11] -0.047 | [12] 0.025 | [13] 0.017 | [14] 0.017 | [15] -0.02 | [16] 0.105 | [17] -0.066 | [18] 0.093 | [19] 0.054 | [20] -0.031

MRPL48 (UniProt Q96GC5)
inactive: [1] -0.024 | [2] 0.22 | [3] 0.017 | [4] -0.135 | [5] -0.044 | [6] 0.006 | [7] 0.036 | [8] -0.043 | [9] 0.147 | [10] -0.038 | [11] 0.115 | [12] 0.021 | [13] -0.167 | [14] 0.211 | [15] -0.002 | [16] -0.111 | [17] -0.019 | [18] 0.148 | [19] 0.135 | [20] -0.126

MICALL2 (UniProt Q8IY33)
inactive: [1] 0.139 | [2] -0.217 | [3] 0.026 | [4] 0.086 | [5] -0.072 | [6] -0.217 | [7] 0.14 | [8] 0.053 | [9] 0 | [10] 0.053 | [11] 0.066 | [12] -0.045 | [13] 0.152 | [14] 0 | [15] 0.07 | [16] 0.082 | [17] -0.044 | [18] 0.194 | [19] 0.042 | [20] 0.048

MPRIP isoform 2 (UniProt Q6WCQ1)
inactive: [1] 0.101 | [2] 0.064 | [3] 0.065 | [4] 0.045 | [5] 0.133 | [6] -0.191 | [7] 0.016 | [8] 0.089 | [9] -0.03 | [10] -0.01 | [11] 0.003 | [12] -0.081 | [13] 0.028 | [14] -0.259 | [15] 0.007 | [16] 0.024 | [17] -0.046 | [18] -0.079 | [19] 0.032 | [20] -0.038

MRPL2 (UniProt Q5T653)
inactive: [1] -0.08 | [2] 0.235 | [3] 0.094 | [4] -0.195 | [5] -0.04 | [6] -0.105 | [7] -0.031 | [8] -0.144 | [9] 0.266 | [10] 0.01 | [11] 0.086 | [12] 0.05 | [13] -0.194 | [14] 0.267 | [15] -0.104 | [16] 0.013 | [17] 0.012 | [18] 0.083 | [19] 0.107 | [20] -0.252

MPLKIP (UniProt Q8TAP9)
inactive: [1] -0.025 | [2] 0.096 | [3] -0.04 | [4] 0.034 | [5] 0.003 | [6] -0.059 | [7] -0.011 | [8] 0.049 | [9] 0.04 | [10] 0.101 | [11] 0.037 | [12] 0.107 | [13] -0.065 | [14] 0.097 | [15] 0.093 | [16] -0.061 | [17] -0.015 | [18] 0.066 | [19] -0.007 | [20] -0.014

MRPL49 (UniProt Q13405)
inactive: [1] -0.149 | [2] 0.235 | [3] 0.089 | [4] -0.084 | [5] -0.076 | [6] -0.111 | [7] -0.031 | [8] -0.008 | [9] 0.081 | [10] 0.018 | [11] 0.035 | [12] 0.13 | [13] 0.043 | [14] 0.183 | [15] -0.09 | [16] 0.091 | [17] 0.067 | [18] 0 | [19] 0.086 | [20] -0.141

MPDU1 (UniProt O75352)
inactive: [1] 0.012 | [2] -0.013 | [3] -0.105 | [4] 0.005 | [5] -0.075 | [6] -0.105 | [7] 0.111 | [8] 0.077 | [9] 0 | [10] 0.076 | [11] 0.001 | [12] 0.117 | [13] 0.264 | [14] -0.139 | [15] 0.208 | [16] -0.031 | [17] -0.01 | [18] 0.027 | [19] 0.013 | [20] 0.117

MKLN1 (UniProt Q9UL63)
inactive: [1] 0.017 | [2] 0.073 | [3] -0.007 | [4] 0.015 | [5] -0.059 | [6] -0.021 | [7] -0.039 | [8] -0.008 | [9] 0.039 | [10] -0.032 | [11] 0.013 | [12] 0.045 | [13] -0.045 | [14] 0.007 | [15] -0.044 | [16] -0.022 | [17] 0.075 | [18] 0 | [19] -0.014 | [20] 0.133

MRI1 (UniProt Q9BV20)
inactive: [1] -0.014 | [2] -0.072 | [3] 0.016 | [4] -0.026 | [5] -0.073 | [6] 0.042 | [7] 0.012 | [8] -0.02 | [9] -0.001 | [10] 0.068 | [11] 0.037 | [12] 0.107 | [13] 0.008 | [14] -0.068 | [15] 0.075 | [16] 0.011 | [17] 0.006 | [18] -0.013 | [19] -0.044 | [20] 0.192

MRPL55 isoform 2 (UniProt Q7Z7F7)
inactive: [1] -0.048 | [2] 0.081 | [3] 0.054 | [4] -0.077 | [5] 0.024 | [6] -0.048 | [7] -0.108 | [8] -0.075 | [9] 0.175 | [10] 0.117 | [11] 0.084 | [12] -0.097 | [13] 0.039 | [14] 0.285 | [15] -0.052 | [16] -0.023 | [17] -0.048 | [18] 0.215 | [19] 0.166 | [20] -0.063

MRPL54 (UniProt Q6P161)
inactive: [1] -0.065 | [2] 0.024 | [3] -0.092 | [4] 0.108 | [5] -0.034 | [6] -0.219 | [7] -0.052 | [8] -0.003 | [9] 0.175 | [10] -0.045 | [11] -0.038 | [12] -0.212 | [13] -0.061 | [14] 0.21 | [15] -0.08 | [16] 0.057 | [17] 0.043 | [18] -0.059 | [19] 0.1 | [20] -0.26

MPI (UniProt P34949)
inactive: [1] -0.157 | [2] -0.018 | [3] -0.049 | [4] 0.002 | [5] -0.008 | [6] 0.045 | [7] -0.018 | [8] 0.072 | [9] -0.04 | [10] -0.147 | [11] 0.017 | [12] 0.002 | [13] 0.054 | [14] -0.015 | [15] 0.045 | [16] -0.105 | [17] -0.008 | [18] 0.006 | [19] -0.008 | [20] -0.003

MOCOS (UniProt Q96EN8)
inactive: [1] -0.177 | [2] 0.01 | [3] -0.06 | [4] -0.151 | [5] 0.011 | [6] 0.009 | [7] 0.009 | [8] 0.116 | [9] 0.021 | [10] 0.016 | [11] -0.004 | [12] 0.017 | [13] -0.034 | [14] -0.082 | [15] 0.091 | [16] 0.015 | [17] -0.052 | [18] -0.028 | [19] -0.004 | [20] -0.057

MIS18A (UniProt Q9NYP9)
inactive: [1] 0.064 | [2] -0.002 | [3] 0.006 | [4] 0.005 | [5] -0.036 | [6] -0.037 | [7] 0.035 | [8] -0.028 | [9] 0.042 | [10] 0.023 | [11] 0.024 | [12] 0.044 | [13] -0.047 | [14] -0.1 | [15] 0.024 | [16] -0.025 | [17] 0.021 | [18] -0.01 | [19] -0.013 | [20] 0.075

2 neighbouring records out of the list so far, quoted:
MPLKIP (UniProt Q8TAP9)
inactive: [1] -0.025 | [2] 0.096 | [3] -0.04 | [4] 0.034 | [5] 0.003 | [6] -0.059 | [7] -0.011 | [8] 0.049 | [9] 0.04 | [10] 0.101 | [11] 0.037 | [12] 0.107 | [13] -0.065 | [14] 0.097 | [15] 0.093 | [16] -0.061 | [17] -0.015 | [18] 0.066 | [19] -0.007 | [20] -0.014

MRPL49 (UniProt Q13405)
inactive: [1] -0.149 | [2] 0.235 | [3] 0.089 | [4] -0.084 | [5] -0.076 | [6] -0.111 | [7] -0.031 | [8] -0.008 | [9] 0.081 | [10] 0.018 | [11] 0.035 | [12] 0.13 | [13] 0.043 | [14] 0.183 | [15] -0.09 | [16] 0.091 | [17] 0.067 | [18] 0 | [19] 0.086 | [20] -0.141
